For at least one compound, name, drawing or mass did not settle the structure. Some of these results come from one statement about several compounds together.
Test system: Arabidopsis thaliana cultured cells 87T
Test: Concerted sensitivity test on herbicide and antibiotic in Arabidopsis thaliana cultured cells
Type: cell-based
Conditions: for inhibition of the growth rate in combination with spectinomycin: both spectinomycin and herbicide, effect not observed with individual administration of the same concentration
Experimental: Arabidopsis thaliana cultured cells 87T were used in the experiment. Media comprising different concentrations of a group of herbicides and spectinomycin using a redifferentiation medium (Q. Yu. et al. Plant Physiol. 2017. 175(1). 186-193) as the base were added to each well of a 24-well plate. Specifically, a plate with varying concentrations of the group of herbicides of 0, 0.1, 1, 10, 50, and 100 μM in the direction of the X-axis of the plate and varying concentrations of an antibiotic spectinomycin of 0, 1, 10, and 100 μg/mL in the direction of the y-axis was prepared (FIG. 9A). Pinoxaden, tepraloxydim, tralkoxydim, cyhalofop butyl, and haloxyfop were used as the group of herbicides in each plate. 100 μL of cultured cells was added to each well and cultured under light-dark conditions in an artificial climate incubator. On days 3, 7, and 15 after culture, the growth status was checked to study the concerted sensitivity of a herbicide and antibiotic. • Results

Row | SMILES | inhibition of the growth rate in combination with spectinomycin | herbicide concentration at which inhibition of growth was observed (herbicide alone, tested 0-100 μM, growth checked on days 3, 7, 15) [µM] | inhibition of the growth rate by herbicide alone (herbicide alone, within the range of concentrations studied (0-100 μM))
1 | CCO/N=C(\CC)C1=C(O)CC(c2c(C)cc(C)cc2C)CC1=O (stereo not shown) [tralkoxydim] | significant inhibition of the growth rate | ≥ 50 | 
2 | CC/C(=N\OC/C=C/Cl)C1=C(O)CC(C2CCOCC2)CC1=O (stereo not shown) [tepraloxydim] | significant inhibition of the growth rate |  | not observed
